From paper PMC5472279, “Genetic, structural, and chemical insights into the dual function of GRASP55 in germ cell Golgi remodeling and JAM-C polarized localization during spermatogenesis” (PLoS Genetics, 2017)
Results are given in words; binding and its absence hold for the method and conditions named. Binding seen in cells or lysates may run through a third protein. These calls come from enrichment with a bait or labelling near it, and not all partners need be listed. A no says only that the protein was not detected with the bait.

What was measured:
[1] = molecular target: T1, Biotinylated JAM-A carboxy-terminal peptide lacking the three last amino acids; experiment: affinity purification with mass spectrometry; biotinylated peptides on streptavidin Sepharose beads; 1 mL mouse testis lysate (5 mg protein), 2 h; 50 mM HEPES pH 7.3, 10% glycerol, 0.1 mM EDTA, 150 mM NaCl, 1% Triton X100; LC-MSMS; only the target purified
T1 sequence (peptide, Biotin at the N-terminus): SQPSTRSEGEFKQTSS

[2] = molecular target: T2, Biotinylated JAM-B carboxy-terminal peptide lacking the three last amino acids (mouse); experiment: as above
T2 sequence (peptide, Biotin at the N-terminus): SKVTTMSENDFKHTKS

- binding [1]: no binding
- binding [2]: no binding
B1: ZO-2, endogenous in mouse testis (protein, UniProt Q9Z0U1 1-1167)
chain: MEEVIWEQYTVTLQKDSKRGFGIAVSGGRDNPHFENGETSIVISDVLPGGPADGLLQENDRVVMVNGTPMEDVLHSFAVQQLRKSGKIAAIVVKRPRKVQVAPLQGSPPLSHDDRGFEVIEEFDGRSFRSGYSERSRHSSHDMLSHSWEGNRERGRPHQRTQSRERERSRGRSLERGLDQEDYGRSRERSRGRSLERGLDRDFVSRDHSRGRSIDRDYDRDYERSYHEAYEPDYGGGYSPSYDRRAHPETRYERSRSREHLRSRSPSPESRSRHEHKGQHDPDRPIGVLLTKSKANEEYGLRLGSQIFIKEMTRTGLATKDGNLHEGDIILKINGTVTENMSLTDARKLIEKSRGKLQLVVLRDSKQTLINIPALNDSDSEVEDISEIESNRSFSPEERRQQYSDQDYHSSTEKLKERPSSREETSGRLSRMGATPTPFKSTGDITAAGVTEASREPRYQEEGPVPQPRTAPRVFLRPSPEDEAIYGPNTKMVRFKKGDSVGLRLAGGNDVGIFVAGIQEGTSAEQEGLQEGDQILKVNTQDFRGLVREDAVLYLLEIPKGETVTILAQSRADVYRDILACGRGDSFFIRSHFECEKETPQSLAFTRGEVFRVVDTLYDGKLGHWLAVRIGNELEKGLIPNKSRAEQMASVQNAQRENAGDRADFWRMRGQRSSGGVKKNLRKSREDLAAAVSVSTKFPAYEKVLLREAGFKRPVVLFGPIADIAMERLATELPDLFQTAKTEPKDAGSEKSSGVVRLNTVRQIIEQDKHALLDVTPKAVDLLNYTQWFPIVIFFNPDSRQGVKTIRQRLSPTSNKSSRKLFDQANKLKKTCSHLFTATINVNSANDGWFGSLKDSIQQQQNEAVWVSEGKMEGMDDDAEDRMSYLTAMGADYLSCDSRLISDFEDTDGEGGAYTDNELEEPAEEPLVSSITRSSEPVQHEENIRKSSPEPRAQMRRAASRDQLRDASPPPAFKPEPPKARSQNREDSFDYSKSNLPATAGSEIPGGSTKGYPPPIAAKPAFGRPILKPSTPVPMPESEEVGESTEEQEDAPRSVLGRVKIFEKMDHKAKLQRMQELQEAQNARIEIAQKHPDIYAVPIKAPKPDAGLPPHMSSRPPEPQKAPSRLYQDTRGSYGSDPEEEEYRQQLAAHSKRGYYSQPSRYRDTEL
